{
  "sequences": {"note": "Protein sequences, listed by entry. Tags and fused reporters are not part of them. Lines headed by an entry give the natural chain unless they say otherwise; changes in a name come on top.", "UniProt Q9Y4R8": "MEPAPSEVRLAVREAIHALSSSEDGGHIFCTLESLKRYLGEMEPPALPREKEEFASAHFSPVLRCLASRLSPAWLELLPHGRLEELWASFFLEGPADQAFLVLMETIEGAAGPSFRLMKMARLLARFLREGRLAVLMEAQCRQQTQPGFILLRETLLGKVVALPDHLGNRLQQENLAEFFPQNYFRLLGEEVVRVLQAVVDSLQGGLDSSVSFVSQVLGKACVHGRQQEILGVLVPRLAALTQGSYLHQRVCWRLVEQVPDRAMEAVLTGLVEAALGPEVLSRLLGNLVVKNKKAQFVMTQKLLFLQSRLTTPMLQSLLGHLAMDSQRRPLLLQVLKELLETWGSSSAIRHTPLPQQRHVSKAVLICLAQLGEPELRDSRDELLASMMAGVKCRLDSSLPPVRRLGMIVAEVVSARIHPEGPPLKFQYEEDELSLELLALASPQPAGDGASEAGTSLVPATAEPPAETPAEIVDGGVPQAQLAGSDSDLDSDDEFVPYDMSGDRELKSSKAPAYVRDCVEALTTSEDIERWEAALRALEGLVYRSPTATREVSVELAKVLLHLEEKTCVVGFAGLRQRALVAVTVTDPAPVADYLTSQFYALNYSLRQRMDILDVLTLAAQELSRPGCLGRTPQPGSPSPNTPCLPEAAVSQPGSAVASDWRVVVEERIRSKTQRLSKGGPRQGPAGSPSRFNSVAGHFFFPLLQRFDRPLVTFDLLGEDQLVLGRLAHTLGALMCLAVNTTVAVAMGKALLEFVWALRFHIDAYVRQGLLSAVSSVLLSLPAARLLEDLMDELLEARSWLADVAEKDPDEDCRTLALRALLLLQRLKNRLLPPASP", "UniProt O43156": "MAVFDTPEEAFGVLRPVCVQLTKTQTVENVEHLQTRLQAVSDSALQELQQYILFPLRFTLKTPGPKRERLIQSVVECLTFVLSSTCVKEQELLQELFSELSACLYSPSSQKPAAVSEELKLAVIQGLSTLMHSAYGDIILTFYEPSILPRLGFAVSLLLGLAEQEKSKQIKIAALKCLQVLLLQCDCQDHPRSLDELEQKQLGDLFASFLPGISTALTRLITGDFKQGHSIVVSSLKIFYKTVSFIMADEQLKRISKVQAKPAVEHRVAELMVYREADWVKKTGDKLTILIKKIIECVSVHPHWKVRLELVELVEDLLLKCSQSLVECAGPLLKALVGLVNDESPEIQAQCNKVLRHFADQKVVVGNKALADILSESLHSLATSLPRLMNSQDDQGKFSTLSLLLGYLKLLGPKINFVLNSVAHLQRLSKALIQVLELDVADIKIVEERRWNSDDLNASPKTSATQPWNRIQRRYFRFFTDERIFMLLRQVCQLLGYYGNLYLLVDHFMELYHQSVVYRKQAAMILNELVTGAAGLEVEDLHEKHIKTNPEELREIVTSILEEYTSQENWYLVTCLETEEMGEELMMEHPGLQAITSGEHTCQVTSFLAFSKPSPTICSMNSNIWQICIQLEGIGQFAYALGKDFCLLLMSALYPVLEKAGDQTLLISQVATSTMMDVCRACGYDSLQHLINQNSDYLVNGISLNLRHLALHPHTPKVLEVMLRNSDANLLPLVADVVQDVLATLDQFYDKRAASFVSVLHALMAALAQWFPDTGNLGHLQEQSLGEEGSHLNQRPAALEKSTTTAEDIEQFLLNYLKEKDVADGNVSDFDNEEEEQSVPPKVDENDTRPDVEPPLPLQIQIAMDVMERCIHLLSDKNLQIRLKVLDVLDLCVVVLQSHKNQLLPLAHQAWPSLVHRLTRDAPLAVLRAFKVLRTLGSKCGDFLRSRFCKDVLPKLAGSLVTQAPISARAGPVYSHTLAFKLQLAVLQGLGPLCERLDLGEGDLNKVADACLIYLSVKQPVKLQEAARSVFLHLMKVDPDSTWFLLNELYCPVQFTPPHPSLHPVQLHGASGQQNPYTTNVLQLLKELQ"},
  "source": "paper PMC9072907",
  "key": {"FLAG-TELO2 K749T (human)": {"molecular_target": "FLAG-TELO2 K749T (human) (UniProt Q9Y4R8)", "test": "co-IP; FLAG-tagged TELO2 precipitated with anti-DDDDK-tag (FLAG) antibody on protein G Sepharose, 4°C, 12 h; TELO2 IP buffer (40 mM HEPES-NaOH pH 7.5, 150 mM NaCl, 2 mM EDTA, 0.3% CHAPS); HEK293 cells with or without 10 μM ivermectin for 1 h; western blotting"}, "[1]": {"molecular_target": "FLAG-tagged wild-type (WT) TELO2 (human) (UniProt Q9Y4R8)", "test": "co-IP; FLAG-tagged TELO2 precipitated with anti-DDDDK-tag (FLAG) antibody on protein G Sepharose, 4°C, 12 h; TELO2 IP buffer (40 mM HEPES-NaOH pH 7.5, 150 mM NaCl, 2 mM EDTA, 0.3% CHAPS); HEK293 cells with or without 10 μM ivermectin for 1 h; western blotting"}},
  "note": "These are yes or no findings as the source states them, for the method shown. Binding seen in cells or lysates may run through a third protein. Some binding calls cover weakened binding; strength is not graded here.",
  "data": [
    {"substance": "TELO2-interacting protein 1 homolog (from UniProt O43156 1-1089)", "values": [
      {"measurement": "binding", "setting": "FLAG-TELO2 K749T (human)", "value": "binds"},
      {"measurement": "binding", "setting": "[1]", "value": "binds"}
    ]}
  ]
}
